Data on one compound can be found in patent US9527066B2, “Dihydroxybipyridine complexes of ruthenium and iridium for water oxidation and hydrogenation” (The Board of Trustees of The University of Alabama, priority 2011, dated 2016).

The structures appear in SMILES notation. Read-outs that look alike come from different tables or passages of the source.

`Cc1c(C)c(C)[c-](C)c1C.Oc1cccc(-c2cccc(O)n2)n1.[Cl-].[Cl][Ir+2]` [[Cp*IrCl(6,6′-DHBP)]Cl, [Cp*Ir(6,6′-DHBP)Cl]Cl]: the “O2 formation [mass = 32], % TIC” value by setting is: (20 minutes, 0.10 M (NH4)2Ce(NO3)6 plus 34 μM catalyst stock) 2.42 % TIC; (40 minutes) 3.35 % TIC; (60 minutes) 3.81 % TIC; (80 minutes) 3.55 % TIC; (100 minutes) 3.63 % TIC; (120 minutes) 3.49 % TIC. For the same compound, the “increase of % TIC accounting for O2 formation” value (over the course of 60 minutes) turned out to be 3.3 % TIC.
